Measured values from US20260274955A1, “ANTIBODIES FOR TARGETING CD28 AND USES THEREOF” (Janux Therapeutics, Inc., priority 2023, published 2026).
These are yes or no findings as the source states them, for the method shown. Some entries that bind do so weakly or less than the wild type.

B1: Peptide-3 (peptide)
peptide: RDWCPRDLWVHCFA
B2: Peptide-6 (peptide)
peptide: QDWCPRDLWVHCFA
B3: Peptide-7 (peptide)
peptide: EDWCPRDLWVHCFA
B4: Peptide-12 (peptide)
peptide: KDWCPRDLWVHCFA
B5: Peptide-16 (peptide)
peptide: TDWCPRDLWVHCFA
B6: Peptide-23 (peptide)
peptide: IDWCPRYLWDECYN

Molecular target: Ab-1
Test: BLI titration

Binder	binding
B1	binds
B2	binds
B3	binds
B4	binds
B5	binds
B6	binds
